Measured values reported in publication PMC3973350.
These are yes or no findings as the source states them, for the method shown. In cells and extracts the contact can be indirect. Some entries that bind do so weakly or less than the wild type.

Protein sequences, listed by entry. Tags and fused reporters are not part of them.
UniProt Q13111: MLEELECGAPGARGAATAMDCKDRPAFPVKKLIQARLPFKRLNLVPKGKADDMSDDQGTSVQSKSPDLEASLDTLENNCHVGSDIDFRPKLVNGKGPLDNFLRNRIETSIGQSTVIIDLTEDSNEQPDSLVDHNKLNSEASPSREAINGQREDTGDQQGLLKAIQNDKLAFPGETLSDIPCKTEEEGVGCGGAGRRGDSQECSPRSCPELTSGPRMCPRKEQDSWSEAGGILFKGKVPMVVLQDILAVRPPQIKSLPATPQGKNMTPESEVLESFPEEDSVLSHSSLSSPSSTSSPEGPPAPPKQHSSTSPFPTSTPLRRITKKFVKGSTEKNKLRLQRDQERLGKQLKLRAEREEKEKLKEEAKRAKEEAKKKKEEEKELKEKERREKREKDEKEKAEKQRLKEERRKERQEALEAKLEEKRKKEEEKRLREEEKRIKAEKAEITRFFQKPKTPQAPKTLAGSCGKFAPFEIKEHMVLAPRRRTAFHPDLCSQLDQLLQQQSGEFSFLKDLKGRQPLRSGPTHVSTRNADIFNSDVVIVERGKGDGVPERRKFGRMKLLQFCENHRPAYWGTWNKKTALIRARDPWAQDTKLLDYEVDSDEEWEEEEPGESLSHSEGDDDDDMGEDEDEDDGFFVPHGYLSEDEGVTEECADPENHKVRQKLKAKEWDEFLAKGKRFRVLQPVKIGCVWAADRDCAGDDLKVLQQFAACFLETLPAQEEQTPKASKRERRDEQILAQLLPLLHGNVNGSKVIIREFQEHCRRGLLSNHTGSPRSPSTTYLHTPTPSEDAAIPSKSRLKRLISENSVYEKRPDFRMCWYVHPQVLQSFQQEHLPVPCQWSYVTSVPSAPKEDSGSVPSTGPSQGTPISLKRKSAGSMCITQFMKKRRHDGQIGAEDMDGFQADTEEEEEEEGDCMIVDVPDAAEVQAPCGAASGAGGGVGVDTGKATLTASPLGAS
UniProt Q9NVP2: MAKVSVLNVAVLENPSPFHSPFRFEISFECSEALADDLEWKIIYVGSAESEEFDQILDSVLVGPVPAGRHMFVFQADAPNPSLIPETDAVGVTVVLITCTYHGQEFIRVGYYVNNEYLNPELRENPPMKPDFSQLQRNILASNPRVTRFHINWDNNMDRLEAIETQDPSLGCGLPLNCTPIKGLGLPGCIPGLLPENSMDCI

Experiments:
[1] = molecular target: anti-silencing factor 1 isoform a (Asf1a) (human (endogenous in HeLa S3)) (UniProt Q9Y294); assay: co-IP; sequential IP (ReIP): Flag-purified material from S3-eH3.2 subjected to a second IP with antibody to MCM2, CAF-1 p150 or Asf1a; input, IP and flow-through immunoblotted
[2] = molecular target: mini chromosome maintenance protein 2 (MCM2) (human (endogenous in HeLa S3)) (UniProt P49736); assay: as above
[3] = molecular target: chromatin associated factor-1 (CAF-1) p150 subunit (human (endogenous in HeLa S3)) (UniProt Q13111); assay: co-IP; Flag-IP of eH3.2 from nuclear extract, Flag peptide elution; second IP with anti-CAF-1 p150, eluted with specific peptide; unbound CAF-1-depleted material re-immunoprecipitated with anti-HA, HA peptide elution; western blot

Row | binding [1] | binding [2] | binding [3] | Substance
1 | no binding | binds |  | anti-silencing factor 1 isoform b (Asf1b) (from UniProt Q9NVP2 1-202)
2 | no binding |  |  | chromatin associated factor-1 (CAF-1) p150 subunit (from UniProt Q13111 1-956)
3 |  |  | no binding | anti-silencing factor 1 isoform a (Asf1a) (from UniProt Q9Y294 1-204)
